Results from one PubChem assay

By UniProt entry, the sequences of proteins in these tests, tags left out.
UniProt O94782, whole entry, looked up, target on record: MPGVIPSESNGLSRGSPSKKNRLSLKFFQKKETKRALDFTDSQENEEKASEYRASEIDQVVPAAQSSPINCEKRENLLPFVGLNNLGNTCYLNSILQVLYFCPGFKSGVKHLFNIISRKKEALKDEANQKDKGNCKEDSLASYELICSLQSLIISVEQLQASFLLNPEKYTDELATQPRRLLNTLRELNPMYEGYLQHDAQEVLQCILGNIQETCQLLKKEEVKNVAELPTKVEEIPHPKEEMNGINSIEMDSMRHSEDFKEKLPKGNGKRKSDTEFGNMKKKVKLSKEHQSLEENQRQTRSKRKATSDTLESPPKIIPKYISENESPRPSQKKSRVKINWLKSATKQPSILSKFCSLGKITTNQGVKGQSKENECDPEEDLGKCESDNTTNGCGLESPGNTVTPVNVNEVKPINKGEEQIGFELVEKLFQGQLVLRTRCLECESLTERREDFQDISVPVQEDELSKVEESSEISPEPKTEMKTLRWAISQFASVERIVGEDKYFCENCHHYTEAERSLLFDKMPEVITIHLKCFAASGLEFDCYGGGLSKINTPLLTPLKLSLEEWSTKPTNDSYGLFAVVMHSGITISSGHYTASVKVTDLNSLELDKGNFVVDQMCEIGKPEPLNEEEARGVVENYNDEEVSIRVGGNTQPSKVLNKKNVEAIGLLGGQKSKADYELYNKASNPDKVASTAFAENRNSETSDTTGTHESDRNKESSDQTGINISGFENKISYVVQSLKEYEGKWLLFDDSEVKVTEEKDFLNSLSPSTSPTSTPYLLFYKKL

Data taken from PubChem BioAssay AID504865, deposited by NCATS (2011).

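Fluorescent signal from cleaved Ub-rhodamine measures how much the isolated USP1/UAF1 deubiquitinase is inhibited, recorded over roughly six minutes.
Compounds were titrated over 13 concentrations from about 0.0037 µM up to roughly 110 µM, the top dose varying by compound.
The value is the fitted AC50 from the dose-response series, and a lower number means a more potent inhibitor.
Calls come from curve class and fitted log AC50: scores 40-100 are active, 1-39 inconclusive (as here, weak, partial or poorly fitted curves), and 0 inactive.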

Values are in µM.
All entries here are filed as inconclusive.
Only part of the assay is shown, chiefly results filed as inconclusive.
Potencies fitted to partial, single-point or poorly fitting curves are rough.
Some entries filed as inconclusive have a full curve.
Activity scores are not listed here.

Cc1c(C)c2c(c(C)c1O)CC[C@@](C)(CCC[C@@H](C)CCC[C@@H](C)CCCC(C)C)O2 gave Potency 10 µM (inhibitor, full curve). With COc1ccc2c(c1)OC/C(=C/c1ccc(OC)c(OC)c1)C2=O the assay gave Potency 63.1 µM (inhibitor, partial curve, poor fit). Result for CCC(=O)c1ccc2c(c1)N(CCCN1CCN(CCO)CC1)c1ccccc1S2 was Potency 50.12 µM (inhibitor, partial curve, poor fit). CNc1nc(-c2ccoc2)nc2ccccc12 read Potency 31.62 µM (inhibitor, single point). For Cc1cccc(CNc2cc(-c3cccc(C#N)c3)ncn2)c1 the result was Potency 50.12 µM (inhibitor, partial curve, poor fit). CN[C@@H]1C[C@H](c2ccc(Cl)c(Cl)c2)c2ccccc21 gave Potency 22.39 µM (inhibitor, full curve).

With COC(=O)/C=C/C(C)=C/C=C/C(C)=C/C=C/C=C(C)/C=C/C=C(C)/C=C/C(=O)O the assay gave Potency 50.12 µM (inhibitor, partial curve). COC(=O)C1=CO[C@@H](C)[C@H]2CN3CCc4c([nH]c5ccccc45)[C@@H]3C[C@H]12 read Potency 31.62 µM (inhibitor, partial curve, poor fit). For COc1ccc(C(=O)/C=C/c2ccccc2)cc1 the result was Potency 56.23 µM (inhibitor, partial curve, poor fit). Result for CNC(=O)[C@H]1O[C@H](n2cnc3c(NCc4cccc(I)c4)nc(Cl)nc32)[C@@H](O)[C@@H]1O was Potency 31.62 µM (inhibitor, partial curve). CC1O[C@@H](O[C@H]2C(Oc3cc(O)c4c(=O)cc(-c5ccc(O)cc5)oc4c3)OC(CO)C(O)C2O)C(O)C(O)C1O (stereo partly drawn) read Potency 70.79 µM (inhibitor, partial curve, poor fit). For C[C@@H](Cc1ccccc1)NCCC(c1ccccc1)c1ccccc1 the result was Potency 39.81 µM (inhibitor, single point).

COc1ccccc1CNc1ncncc1-c1ccoc1 read Potency 56.23 µM (inhibitor, partial curve, poor fit). CC1=C2C(=COC(C)C2C)C(=O)C(C(=O)O)=C1O (stereo not drawn) read Potency 79.43 µM (inhibitor, partial curve, poor fit). Result for O=C1CS[C@@H](c2ccccc2Cl)c2cc(Cl)ccc2N1 was Potency 28.18 µM (inhibitor, partial curve). CO[C@H]1[C@H](O[C@H]2O[C@@H](C)[C@@H](O[C@@H]3C[C@](C)(O)[C@H](OC(=O)CC(C)C)[C@H](C)O3)[C@@H](N(C)C)[C@@H]2O)[C@@H](CC=O)C[C@@H](C)[C@@H](O)/C=C\C=C/C[C@@H](C)OC(=O)C[C@H]1OC(C)=O gave Potency 39.81 µM (inhibitor, partial curve, poor fit). C/C1=C2N=C(/C=C3N=C(/C(C)=C4\[N-]C(C)(C5N=C1C(C)(CCC(=O)NCC(C)OP(=O)([O-])O[C@H]1C(O)C(n6cnc7cc(C)c(C)cc76)O[C@@H]1CO)C5CC(N)=O)C(C)(CC(N)=O)C4CCC(N)=O)C(C)(CC(N)=O)C\3CCC(N)=O)C(C)(C)C/2CCC(N)=O.[CH2-]C1OC(n2cnc3c(N)ncnc32)C(O)C1O.[Co] (stereo partly drawn) read Potency 39.81 µM (inhibitor, partial curve, poor fit). Result for COc1cc(OC)c2c(=O)c(-c3ccc4c(c3)OCO4)coc2c1 was Potency 50.12 µM (inhibitor, partial curve, poor fit).

COc1ccc2c(c1)OC(C)(C)C(c1ccccc1)C2c1ccc(OCCN2CCCC2)cc1 (stereo not drawn) read Potency 50.12 µM (inhibitor, partial curve). O=C(O)CF gave Potency 1.413 µM (inhibitor, partial curve, poor fit). COc1ccccc1-c1oc2ccccc2c(=O)c1O read Potency 22.39 µM (inhibitor, partial curve, poor fit). For Oc1cc2c(cc1O)CN(C(=S)NCCc1ccc(Cl)cc1)CCC2 the result was Potency 44.67 µM (inhibitor, full curve, poor fit). Oc1cc(O)c2c(c1)OC(c1ccc(O)c(O)c1)C(O)C2 (stereo not drawn) gave Potency 50.12 µM (inhibitor, full curve, poor fit). Oc1ccc2c3c1O[C@H]1c4[nH]c5ccccc5c4C[C@@]4(O)C(C2)N(CC2CC2)CCC314 (stereo partly drawn) read Potency 56.23 µM (inhibitor, partial curve).

COc1ccc2[nH]c3c(c2c1)CCN=C3C gave Potency 14.13 µM (inhibitor, full curve, poor fit). For CC(=O)[C@]1(O)CCC2C3CC(C)C4=CC(=O)C=CC4(C)[C@@]3(F)C(O)C[C@]21C (stereo partly drawn) the result was Potency 100 µM (inhibitor, partial curve, poor fit). CN(C)CC/C=C1\c2ccccc2Sc2ccc(Cl)cc21 gave Potency 79.43 µM (inhibitor, partial curve). CSc1nc2cc(Oc3cccc(Cl)c3Cl)c(Cl)cc2[nH]1 gave Potency 50.12 µM (inhibitor, partial curve, poor fit). For C[C@@](Cc1ccc(O)c(O)c1)(NN)C(=O)O the result was Potency 89.13 µM (inhibitor, single point).

2 of the entries, repeated:

Cc1c(C)c2c(c(C)c1O)CC[C@@](C)(CCC[C@@H](C)CCC[C@@H](C)CCCC(C)C)O2 read Potency 10 µM (inhibitor, full curve).
COc1cc(OC)c2c(=O)c(-c3ccc4c(c3)OCO4)coc2c1 read Potency 50.12 µM (inhibitor, partial curve, poor fit).